In PubChem BioAssay AID1508600 (Functional Genomics Laboratory (NCATS/FGL), 2020):
Among all 53,000 sequences or so, about 3,700 (7%) were called active.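 Rule for the calls: active = gene knockdowns whose robust z-score for IL-1 alpha signal is at least 2 or at most -2, so actives lie on both sides; inactive = the rest.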 This is one part of the list.

Assay: Components of the Cytosolic LPS Sensing Pathway: Gene Identification via Genome-wide siRNA Screen;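 note: robust z of the log signal after scaling to non-targeting control siRNA wells of the plate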
Details: RAW264.7 macrophages, IL-1a HTRF, actives lie on both sides, screened at 100 nM (by protocol), cells primed 5 h with Pam3CSK4 first
Outline: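 Read-out: IL-1a HTRF on supernatant, divided by plate negative-control median ×100, log-transformed and converted to robust z-score. Cells were RAW264.7 given 100 nM siRNA, Pam3CSK4-primed 5 hours, then LipidA-transfected 24 hour.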

Sequence | z-score
GGUUCUGUACGCCACUUGCTT against Cers1 | inactive: 0.256
GGUUUAAUGUUAUAUACGGTT against Olfr606 | active: 2.43
GGAUGCAUGACACAGACUUTT against Olfr47 | inactive: 0.492
GGUACAUCCAGCACAUGGATT against Rnf25 | inactive: 1.77
CCAAGGAGACGGAAUACAGTT against Tgfb1 | inactive: 0.97
GGACUGUUUACUCAGCUCATT against Slc25a33 | active: -2.02
GGCCUAAUCUCAGAAGCAUTT against Tead2 | inactive: -0.11
GGGAUUUCUGGAGAAAAUGTT against Csta2 | inactive: -0.872
CCGACUACUUAAGUUUCCGTT against Ppp1r3c | inactive: 0.837
GGAUACAUUGAAUCAAUGGTT against Cstad | inactive: 0.888
GGAAGAUGCCAUCUUACACTT against Borcs7 | active: 2.5
GGAAGAGAAUCAAGAGCCATT against Lrrc10 | active: -2.65
GGUCCCUAAAAGGUAAACUTT against Rai1 | inactive: 0.228
GGUAAUUGGUAGGAAGCUUTT against Olfr836 | inactive: -0.317
GCCCAUGUAUUUUUUUCUCTT against Olfr67 | inactive: -1.33
GGUAAAUAGCUGUCUUGGCTT against Cerk | inactive: -0.622
GCUCCAAAUAAGCUUUUUATT against Gabra4 | inactive: -0.554
GGAAAUCAGUGCCAACAACTT against Asic5 | inactive: -1.26
GGACAGAUGAUGAAGUUGUTT against Hsp90b1 | active: -2.24
GGAGCUUCGAAAAAAGUUGTT against Pex16 | inactive: 0.329
GGGUCUUUCUCCUUAGCCCTT against Tmem119 | inactive: -0.483
GGUAUUCACUUAAGCAUUUTT against Slco1b2 | inactive: 0.552

Sequence | z-score
GGGUCUAUUUUAAACCCUUTT against Cnpy4 | inactive: 0.937
GGUGUUCUUUGAACUCAAUTT against Pcx | inactive: 0.615
GCAGUGCUCUUAGUAGGACTT against Pfn3 | inactive: 0.868
GCGAAUGUUACAUGUCAGUTT against Tdpoz5 | inactive: -0.862
GCAUCGUUAUCUUUACACUTT against 5730522E02Rik | inactive: 0.344
UAUUUCUCCCUUGCUGGUATT against Gm5168 | inactive: 1.18
GGGUGCUGAACAGUCACAATT against Rab12 | inactive: 0.717
GGAUGCAUACGACAUAAACTT against Cdh15 | inactive: -0.116
GGUUCUUAAUGCAUUCCCGTT against Cyp2d9 | inactive: -0.786
CGUCCUUAUCCACAACACATT against Sertad3 | inactive: -1.85
GGGCAAAAACUGUCUGACUTT against Rps3a1 | inactive: -0.197
GGGUAGACAGAAAGCCUUUTT against Olfr111 | inactive: 0.419
GGAAGGAAGCAGAGAGUUATT against Ndel1 | active: 2.92
GGUAGGAAAUGUUUCAUGUTT against P4ha3 | inactive: 0.137
CCUUACCAGGAAACAUAUUTT against Dennd10 | inactive: -1.33
GCCAACGGAGUUCCCACUATT against Cited1 | inactive: -0.586
GAGCCUUCUAAGUCUGCACTT against H2bc3 | inactive: -1.31
GGCACUUGUAUAUGAACUATT against Fbxo36 | inactive: 0.106
GGGAGUGAGUUCUGGAGUGTT against Capn2 | inactive: 0.815
GAUGAAGAGGCAGGCCAAGTT against Nkx2-4 | active: 2.63
GGAGGAGUUGCUAUUAGACTT against Lin28b | inactive: -0.182
GCACUUCAAUGAGCGAGAATT against Mknk1 | inactive: -1.48

4 records drawn at random from those above, as already listed:
Sequence | z-score
GGCACUUGUAUAUGAACUATT against Fbxo36 | inactive: 0.106
GCACUUCAAUGAGCGAGAATT against Mknk1 | inactive: -1.48
GCGAAUGUUACAUGUCAGUTT against Tdpoz5 | inactive: -0.862
GGUUCUUAAUGCAUUCCCGTT against Cyp2d9 | inactive: -0.786

(next part)

Sequence | z-score
GGUGGUCACUAGCUAACCCTT against 4632433K11Rik | inactive: 0.548
GCCCUUAUGGACGAAAUUUTT against Ang2 | inactive: 0.0523
GGAAAAAAGACCACCAAGATT against Mtif2 | inactive: -0.693
GCCGAAGAACUAAAAGACUTT against Cyb5a | inactive: 1.79
GGUGAAGAAAGUCAAGAAGTT against Spi1 | active: -2.46
GGCCCUCACCAUCUUUUGGTT against Olfr691 | inactive: -1.15
GGCAGAUUCAGAAUUGUCUTT against Il17a | active: -2.58
GGAAUUAUCGCAUCUUUGATT against Sh3bp2 | inactive: 0.0729
GGAACUGGACAAGGACGAUTT against Arhgdia | inactive: 1.17
GGACCUGACAGUUCAAAAATT against Dars | inactive: 0.856
GGAUGCAGUACGAAAUUCUTT against Psmd1 | active: -2.93
GGACAUUGAUGUCAUAGAATT against Endod1 | inactive: -0.511
GGAAUUCUCCUUCCUCACUTT against Cyp21a1 | inactive: -0.429
GGGAAUCACAAGAGAAACATT against 1700052K11Rik | inactive: 0.0375
GGAUAAACAGCUGAAGGUGTT against Ccs | inactive: 0.762
GGUCCCAUCUUUGCUUUGATT against Tbl1x | inactive: 0.225
GGAACAUGUCUUCAAGAGATT against Stac2 | inactive: -0.523
GGUGCUUGAUUUUGUGCAGTT against Psmd13 | inactive: -0.00516
GGCUUUCUGGAAGAUACUUTT against Hrh4 | inactive: -0.47
GGCCCAAGUGACUAAGAACTT against Tgm1 | inactive: -1.61
GGAAGGAGAGGAAAUUAAATT against Nrg3 | inactive: -1.95
GGUGCUAAGAAAAUCAAAGTT against Ryr2 | active: 3.64

Sequence | z-score
AGACAGAUUCCAGUCCUGGTT against 4930451I11Rik | inactive: -0.479
GCCCAGAAUCAACUCCUACTT against Wwp2 | inactive: -0.423
GCUAAAGUGACCUUAAAACTT against Phactr4 | inactive: -0.382
GGCUAUGGAUGUCUCCAAUTT against Gstm4 | inactive: 1.17
GCUAGAGGAUGGCUGAGCUTT against Poll | inactive: -0.581
GGAUCUAGAUGAGAAUGAATT against Fip1l1 | inactive: -1.36
CCGUCAUGCUGAUUGCCUUTT against Gpr119 | inactive: -0.538
GCCUAUUAUAUUUAGACAGTT against Col4a6 | inactive: 0.611
GUUGAGUGGCUGUGAUAUATT against Nms | inactive: -0.00159
GGAGGAAUAUGACACAGUGTT against Wars2 | inactive: 0.138
GAAAGCAUUUAAUGCCCAATT against Vmn1r78 | inactive: 1.3
GGGACCAAGCAGGUAAAAATT against Kif3a | inactive: -0.0378
GGAAUUAAAGAGGAAACAATT against Zfp354b | inactive: 1.33
GGAAGUGUCUGCCAGAGAUTT against Lysmd2 | inactive: -1.75
CCCAAACAUAGCUGAAUAATT against Muc1 | inactive: 0.413
GGUCAAUAUCCUCGGACAUTT against Hsd17b13 | inactive: -0.386
GCCCUGUCGUUUAUUGUGGTT against Cacng4 | inactive: 0.225
GGACUGUGACAAAGCCUAUTT against Klk1b1 | inactive: -0.129
GGAUUCUCAGAAUGCUGGUTT against Polr3f | inactive: 1.31
GCCGAGCAGAUGUACAGAATT against Zfp39 | active: 2.93
GGAAAAUGGUUCUUUCUGCTT against Abhd12 | inactive: -1.22
CCAGGUAUUCUUAAUAGACTT against Zfp207 | inactive: -1.56

Sequence | z-score
GCGAGUCGUGAUUGACAACTT against Pnkp | inactive: 0.311
GGACUUUUUUCCAGAUUAUTT against Paip1 | inactive: 1.31
GGUCAUUCAGUGGUGCACCTT against Skp1 | inactive: -0.00227
CCUAAGCUUAGAUCAACAUTT against Dhx36 | inactive: -0.735
CCCAUAACAUUGGUGAUUATT against Vmn1r235 | inactive: -0.205
UCGAGUGAAGCAGUCUCCATT against Fam189a1 | active: -2.13
GCUAUGUCAACAGUAACAUTT against Mmel1 | inactive: -0.683
GCAUCUAUUGGAUUUACAUTT against Nup153 | inactive: 0.62
CCCACAGAAUCACUCCAAGTT against Utp14a | inactive: -0.211
AUGCGUCCUUCACCAACGATT against Tmem158 | active: -3.28
CCCAUCAUUAGAAUUACUUTT against Vdac2 | inactive: 1.75
GGUUAUAUUAUGUAGCCUATT against Klf17 | inactive: 0.332
GGACUCAAAAGUCCCUGUATT against Adgrg3 | inactive: -1.65
GGUGGGCUCAAGAACUUCUTT against Lypd11 | inactive: -0.12
GGACUUAUGCCGACAGCUUTT against Tnni3 | inactive: 0.0039
GCACGUUCAGUGCACACCUTT against Nubp1 | active: 2.59
GGUCUUGUUUCUUGAGACCTT against C130050O18Rik | inactive: 0.393
GCUGAACAGGUGGUACAAUTT against B3gnt2 | inactive: -0.612
GGAGCAAAAUUCACAGUCUTT against Bcl7a | inactive: -0.25
